Results: article PMC7140707

T1: His6-Gis1 (yeast (S. cerevisiae)) (UniProt Q03833)
T1 sequence: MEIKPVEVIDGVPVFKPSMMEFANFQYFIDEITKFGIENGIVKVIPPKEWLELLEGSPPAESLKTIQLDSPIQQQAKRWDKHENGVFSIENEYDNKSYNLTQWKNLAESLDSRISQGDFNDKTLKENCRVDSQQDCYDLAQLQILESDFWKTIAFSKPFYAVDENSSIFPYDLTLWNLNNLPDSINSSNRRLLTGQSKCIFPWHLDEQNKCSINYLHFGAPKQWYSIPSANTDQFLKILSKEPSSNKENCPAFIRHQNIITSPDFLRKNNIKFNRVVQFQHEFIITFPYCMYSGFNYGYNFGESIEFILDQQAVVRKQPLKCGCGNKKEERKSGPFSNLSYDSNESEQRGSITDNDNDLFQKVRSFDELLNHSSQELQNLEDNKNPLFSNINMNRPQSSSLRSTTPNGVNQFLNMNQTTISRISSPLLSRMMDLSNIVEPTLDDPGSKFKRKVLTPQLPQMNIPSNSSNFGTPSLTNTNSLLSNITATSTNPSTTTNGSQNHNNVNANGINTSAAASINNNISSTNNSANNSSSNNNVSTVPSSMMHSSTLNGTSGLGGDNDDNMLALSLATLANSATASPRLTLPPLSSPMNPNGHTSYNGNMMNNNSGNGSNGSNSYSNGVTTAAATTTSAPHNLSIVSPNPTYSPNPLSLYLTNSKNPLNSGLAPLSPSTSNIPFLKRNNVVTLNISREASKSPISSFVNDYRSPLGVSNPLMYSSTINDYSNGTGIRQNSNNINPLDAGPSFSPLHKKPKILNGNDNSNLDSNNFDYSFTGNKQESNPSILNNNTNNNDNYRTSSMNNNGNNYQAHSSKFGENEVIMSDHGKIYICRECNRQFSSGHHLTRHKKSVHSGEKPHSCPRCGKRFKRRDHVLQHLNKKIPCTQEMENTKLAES


molecular target: T1, His6-Gis1 (yeast (S. cerevisiae)); experiment: affinity purification with mass spectrometry; His6-Gis1 pre-bound to a Ni Sepharose 6 Fast Flow column; crude yeast extract (Δgis1 cells grown in air or under hypoxia, Δgis1Δhem1 cells at intermediate or high ALA) loaded, 4 °C, 2 h; eluted complexes separated by SDS-PAGE, bands excised, MS; only the target purified

Binder	binding
AIM6 (protein, UniProt Q07716 18-390) VCALFSSRGRNPSLTDWEKLKDQKISNIDNFGLTGQHLLEFFQENLPFLSFSEEKYRHKHVSLYYDVFKEYILRRASSKKCLPVDSAIAKLNKDVNPMPVHSHNDYWRKLPLFEGLAYGASSTEADVWNIDEKILAVGHNEAYLDPVELTLDKLYTGPLLEILDEVNCQDSDADRKNGVFFNSPETSLFFYIDFKSDDNELTYKLLMEQYFKSLIDSGYLTYYDMKKDEIIWRPVTVILTGNYPTSLDILDNGNDNGYFESSQRFAFLDAPLLSLEPKYSKLSVAATVSFSQLMKHCGSDHWKVSLRGRMDSNEISCAKSIIDGAHALKLKTRIWGAPTWPANLVETISRQIIHDLGSDLLNLDNLFMASSLI	binds
MHP1 (protein, UniProt P43638 1-1398) MDSKDTQKLLKEHRIPCIDVGWLVRPSASTSKSSRPGKSESKANSVAPDIQMDTARPPVFETSVDSSSSILSSNDKGRRHSVAASLLMDNQRANAGSTSVPTNIPPPRGRSKSVVETNLSNVEADSGHHHHHRHHHHTEDAPAPKKVGFFKSLFGHRKKDQEQQEKERERKERSPSPTHVDRGAAIRRERTATISAESPPPLQYNAPPSYNDTVVPLTRSKTESEVYYENHPQSYYHGRMRTYHSPEEGKVDGTSPADDHNYGGSRPDPRLMDFLRYYKSKDYKLAAFKEGNFIKSSASPTTKKNRRASFSLHNDKPQPAKSLAHQKFDAKGRPIPPHPDAPKLPSAFRKKHPSNASIVDTVDSNSDVSSSAQNNNQTPSSHKFGAFLRKVTSYGNNNNNSTNASSLSANVNNPDTSSTSLWSSSSMEFDPSKITTVPGLENIRPLKHVSFATNTYFNDPPQQICSKNPRKGEVEVKPNGSVVIHRLTPQERKKIMESTSLGVVVGGTGQLKLLNPEEDDANAKSKEEMAPQKQNEVEAHDEEDNNSQRRNIVMAAAEAAAEARAKEAPNELKRIVTNNEEEVTVSKTASHLTIDKPMISRRGASTSSLASMVSSDTNGTNADDEGEILPPPSLKIPHDIVYTRCCHLREILPIPATLKQLKKGSTDPIPILQLRNPRPSMVEIWSFSDFLSIAPVLCLSLDGVQLTVQMLRIILSSLVYKQHFQKLSLRNTPLDEEGWKVLCYFVSKAKSLHSIDLTMVPSIKTNVQKPSKSSLKSKILRMQCNLENRSDMNWDLLTASIALMGGLEEIVISGAKMNSAQFKNFILVACIATERLGLAYNGLSKSQCDDLAKWMVQSKVTGLDVGFNDLNGKLSSFTDAVLGKIQKANEKNVFKFLSLNGTNLRVNEHDTFENNEVLKLISVLCYLENLKFLDISNNPAIFPHCVPTLIDFLPVFVNLVRLHIDYNNLSSTSVVMLAEILPMCSRLNYFSMLGTELDLASSKALAEAVRKSSSLMTLDVDYVYMPENIKEKISLYALRNIQGELKRVNSDDKDIKDSQFSSLQDQLSLLLTEKADNSEHYNKMVENFMAKIALARIKISKVVHDLFDLKLNGQLNLEGKEALIRLCFIEASLERGCDLLKQRHNNTLKSPEAVSKSRKGGNQAQPNSESCQRMLLSSSILQNSDHIALMPFGSAIVEKSSPDAEDAVEFREGDDSNVNHEDVPANDQQFRDEVDIKNKYSIIKRELEHEKLVGGGDLPVDKEILNRAAQSLDSDQIKEFLLKNDVSTILGVIDELHSQGYHLHHIFKKQGNQEETAFRTKDEQQSSQSNDSSANASPTTDPISTGSNTSRTNDNAHIPPTDAPGFDKFMNNAEENAIDAAYDDVLDKIQDARNSSTK	binds
MRM1 (protein, UniProt P25270 21-412) QALKTRIKKKSSSFDKFFPQQSNSRKKQWETLNEDKASWFKRKYAHVHAREQDRAADPYGKKKAHVEKLKEIKNQAKLNQKSHKSKFQNKDIALKLMNDNPIFEYVYGTNSVYAALLNPSRNCHSRLLYHGTIPSKFLQIVDELKVTTELVDKHRLNLLTNYGVHNNIALETKPLQPVEIAYLGDMDTSSAALSIHELGFNNENIPHELPYGTKTDAKKFPLGLYLDEITDPHNIGAIIRSAYFLGVDFIVMSRRNCSPLTPVVSKTSSGALELLPIFYVDKPLEFFTKSQEMGGWTFITSHLANATSEKYTVGKTISMHDLNGLCNELPVVLVVGNESQGVRTNLKMRSDFFVEIPFGGIEKGNRAPEPIVDSLNVSVATALLIDNILTCK	binds
KCS1 (protein, UniProt Q12494 1-1050) MDTSHEIHDKIPDTLREQQQHLRQKESEGCITTLKDLNVPETKKLSSVLHGRKASTYLRIFRDDECLADNNNGVDSNNGGSVTCADKITRSEATPKSVPEGLQVSEKKNNPDTLSSSLSSFILSNHEEPAIKPNKHVAHRNNITETGQGSGEDIAKQQSHQPQVLHHQTSLKPIQNVDEGCISPKSTYQESLHGISEDLTLKPVSSATYYPHKSKADSGYEEKDKMENDIDTIQPATINCASGIATLPSSYNRHTFKVKTYSTLSQSLRQENVNNRSNEKKPQQFVPHSESIKEKPNTFEQDKEGEQADEEEDEGDNEHREYPLAVELKPFTNRVGGHTAIFRFSKRAVCKALVNRENRWYENIELCHKELLQFMPRYIGVLNVRQHFQSKDDFLSDLDQENNGKNDTSNENKDIEVNHNNNDDIALNTEPTGTPLTHIHSFPLEHSSRQVLEKEHPEIESVHPHVKRSLSSSNQPSLLPEVVLNDNRHIIPESLWYKYSDSPNSAPNDSYFSSSSSHNSCSFGERGNTNKLKRRDSGSTMINTELKNLVIREVFAPKCFRRKRNSNTTTMGNHNARLGSSPSFLTQKSRASSHDASNTSMKTLGDSSSQASLQMDDSKVNPNLQDPFLKKSLHEKISNALDGSHSVMDLKQFHKNEQIKHKNSFCNSLSPILTATNSRDDGEFATSPNYISNAQDGVFDMDEDTGNETINMDNHGCHLDSGKNMIIKSLAYNVSNDYSHHDIESITFEETSHTIVSKFILLEDLTRNMNKPCALDLKMGTRQYGVDAKRAKQLSQRAKCLKTTSRRLGVRICGLKVWNKDYYITRDKYFGRRVKVGWQFARVLARFLYDGKTIESLIRQIPRLIKQLDTLYSEIFNLKGYRLYGASLLLMYDGDANKSNSKRKKAANVKVNLIDFARCVTKEDAMECMDKFRIPPKSPNIEDKGFLRGVKSLRFYLLLIWNYLTSDMPLIFDEVEMNDMISEEADSNSFTSATGSKINFNSKWDWLDEFDKEDEEMYNDPNSKLRQKWRKYELIFDAEPRYNDDAQVSD	binds

The remaining lines, values ahead:

binding	Binder
binds	NBA1 (protein, UniProt Q08229 1-501) MSEEREENGISRATLNTQRLSAMIDSLNNEKDDRLFPSPTTTRTMITEEKADQSDVFKPPSRLLRSPAGDVSLPPGDNRSSMISNYSGIIQEGVEVSYVVKNRQQTQERRTSKDSNSLYSLKEPVSKNELPSLPMLPSEATLTKHLSDNQSTKSNTNADEIVIKPVTNAKPVGRFNSNTSKKVEGRGSLKLLSSPLRQEKVMRSSIGSGNLASESGSSTYNTKFHQSIQEQLEEEEEGNVSDKLSIVSSVIPELYTTTNEAPKAINPIRSETNDYNPTIPPRSKDRPRSRLFIEEGDGEGDLLTEEILPTPVQPGGHYKNSSQISTVSEQKSESYYSAATSMPPEEETYLTRPLPSTPNEDSRVTSNLKRDDTLKAIHDRANHTSTSTNKQDDDMYEDIIEETPKKTKLKKDTKKKLNKKKSVKELRSFDIDTLNQLLSVTKGTLIGSEFAQLGMKIEEKRALERLVDSLSRLTADMVLDPDRYEEGLKRLDKATKALEGF
binds	MSC3 (protein, UniProt Q05812 1-728) MVFGFTKRDRRVPDLSRYDYYYQNHEDYNKSPQLSAAAASAASAASPDRTNYSRSHSLVSHAPSIPRQRSSVKSPGRRLSTSSAAPPTSRAAAKQYSQKTYSLRSQRSGEYHLHPPGYTTNGSRMNSMTSGANVRRNYGKNKSTAGNNNDSRANSITVKTTQVTDPSGRTQSITKKTIRKINGYEYVETTTTTKNLVPLGDSQRHFDEFSENYMLQDDDILEEQASDNIHDIIEENETDNEKPYSPVSESHLQDDSELNVEKPDFPLGSYFHHKYSTDVMPLEEESSLSNFSDALDYIPPTHQTSSKYIHNKRKQASTTRRKKRPPAVKNAEAEAKKPLTEAEMYLKALEVAKRNVYHTDAASDNASAPLGSNKSRKSRMGQKMTLRSSSDSPTATANLVKSNVEVQPKRFTSSFFSRNTKSAPHEVHNHSVSTHFKSNKAVDPVPEPKSANTGLTDKEMYDQALKIAQARYYNSHGIQPEAVDNSTTAAKPRQVGVSHLGSTGSIPPNEQHYLGDSEIPVQSEVHEYEPIPLQKTKTTGSSKNKFKTMFDKVLQFSQENYGYQHKKEQGEQTPVTRNAEESFPAASISEGVTTAKPSSNEGVMTNPVVTDSPSPLQQQIDSTTASSNGQSQGNVPTSAVASTTRTRSPELQDNLKSSSSLLQDQTPQRQEDATDPTTSSTNELSAAEPTMVTSTHATKTIQAQTQDPPTKHKKSSFFTKLFKKKSSR

Results are given in words; binding and its absence hold for the method and conditions named. In cells and extracts the contact can be indirect. These calls come from enrichment with a bait or labelling near it, and not all partners need be listed. Where a sequence is shown, tags or fusion partners need not be part of it.
